Each structure is given as a SMILES string.

For experiment [1], the target named is T1, Tyrosine-protein kinase JAK3 (Homo sapiens, UniProt P52333).
T1 sequence (P52333 whole entry): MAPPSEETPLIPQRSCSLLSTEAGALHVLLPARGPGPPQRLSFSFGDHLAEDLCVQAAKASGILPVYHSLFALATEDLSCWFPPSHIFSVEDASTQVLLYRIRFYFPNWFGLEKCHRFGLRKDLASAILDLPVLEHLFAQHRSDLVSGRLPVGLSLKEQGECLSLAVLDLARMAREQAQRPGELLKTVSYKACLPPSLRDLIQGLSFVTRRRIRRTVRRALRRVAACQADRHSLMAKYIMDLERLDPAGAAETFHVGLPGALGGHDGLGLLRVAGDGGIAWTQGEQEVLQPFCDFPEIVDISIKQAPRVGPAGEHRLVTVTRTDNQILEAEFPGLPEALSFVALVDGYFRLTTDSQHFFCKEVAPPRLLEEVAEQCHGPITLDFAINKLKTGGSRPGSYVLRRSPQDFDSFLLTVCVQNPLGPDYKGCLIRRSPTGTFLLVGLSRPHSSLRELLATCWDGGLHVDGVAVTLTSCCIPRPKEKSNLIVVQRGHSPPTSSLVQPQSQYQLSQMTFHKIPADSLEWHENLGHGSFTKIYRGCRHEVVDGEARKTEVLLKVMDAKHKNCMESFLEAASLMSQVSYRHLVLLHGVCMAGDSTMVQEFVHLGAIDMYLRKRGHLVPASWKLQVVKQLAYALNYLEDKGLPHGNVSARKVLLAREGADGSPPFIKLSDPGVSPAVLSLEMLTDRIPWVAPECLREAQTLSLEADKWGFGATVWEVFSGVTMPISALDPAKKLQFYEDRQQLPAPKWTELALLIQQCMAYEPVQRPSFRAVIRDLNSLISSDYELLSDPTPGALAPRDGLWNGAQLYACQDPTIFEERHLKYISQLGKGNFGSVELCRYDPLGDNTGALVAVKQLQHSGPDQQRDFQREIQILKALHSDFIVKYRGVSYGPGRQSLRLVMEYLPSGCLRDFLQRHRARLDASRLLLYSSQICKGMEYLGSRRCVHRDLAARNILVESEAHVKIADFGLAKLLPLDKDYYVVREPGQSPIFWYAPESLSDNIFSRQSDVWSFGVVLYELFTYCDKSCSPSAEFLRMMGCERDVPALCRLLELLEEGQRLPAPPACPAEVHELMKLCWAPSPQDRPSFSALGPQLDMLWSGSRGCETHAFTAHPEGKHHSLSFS
The experiment can be described thus: Inhibition of recombinant human JAK3 assessed as inhibition of substrate phosphorylation measured every 5 mins for 30 mins by LANCE Ultra kinase assay.

The target in experiment [2] is T1, Tyrosine-protein kinase JAK3. The experiment can be described thus: Binding affinity to recombinant human JAK3 kinase domain by fluorescence polarization assay. (In general: In fluorescence polarisation assays a small probe gives low polarisation when free and higher when bound to something large.)

Turning to `CCS(=O)(=O)N1CCN(c2ccc(Nc3ncc(C(N)=O)c(NC4CC4)n3)cc2)CC1` [CERDULATINIB], the IC50 in experiment [1] was 25 nM. In experiment [2], the Kd came out at 3.3 nM.

Broadly, the IC50 is the concentration that gives 50% inhibition. One may read the Kd as the free concentration of one partner at which half of the binding sites on the other are occupied at equilibrium, for simple one-to-one binding.

Source of the values: ChEMBL document CHEMBL5500392, “Functional and Structural Characterization of Clinical-Stage Janus Kinase 2 Inhibitors Identifies Determinants for Drug Selectivity” (J Med Chem, 2024).
